The source of these data is patent US20180162952A1.

Results are given in words; binding and its absence hold for the method and conditions named. Binding calls can cover weak binding; strength is not graded here.

In the assay the target is cynomolgus PTK7 (cynomolgus). In words: ForteBio, concentration series of recombinant monomeric antigen.

B1: SC6.23 (antibody, V domains shown)
VH: QVTLKESGPGILKPSQTLSLTCSFSGFSLSTSNMGVGWIRQPSGKGLEWLAHIWWDDDKYYNPSLKSQLTISKDTSRNQVFLKITSVDTEDTATYYCVRSNYGYAWFAYWGQGTLVTVSA
VL: DIKMTQSPSSMYASLGERVTITCKASQDIYPYLNWFQQKPGKSPKTLIYRTNRLLDGVPSRFSGSGSGQDYSLTISSLDYEDMGIYYCLQYDEFPLTFGAGTKLELK
Consider B1, for which the binding result is recorded as “binds”.

B2: SC6.24 (antibody, V domains shown)
VH: QVQLQQSGPEVVRPGVSVKISCKGSGYTFTDYAVHWVKLSHAKSLEWIGVISTYNDYTYNNQDFKGKATMTVDKSSSTAYMELARLTSEDSAIYYCARGNSYFYALDYWGQGTSVTVSS
VL: DIVLTQSPASLAVSLGQRATISCRASESVDSYGKSFMHWYQQRPGQPPKLLIYRASNLESGIPARFSGSGSRTDFTLTINPVEADDVATYYCQQSNEDPWTFGGGTKLEIK
For B2, the binding result is on record as “binds”.

B3: SC6.2.35 (antibody, V domains shown)
VH: QVQMQQSGAELMKPGASVKLSCKATGYTFTGYWIEWVKQRPGHGLEWIGEILPGSGRSNSNEKFKGKATFTADTSSNTAYMQLSSLTTEDSAIYYCARGKLSWGQGTLVTVSA
VL: DIVLTQSPASLAVSLGQRATISCRASESVDSFGNSFMHWYQQKPGQPPKLLIYAASNLGSGVPARFSGSGSGTDFSLNIHPVEEDDSAMYFCQQSKEVPRTFGGGSRLEIKR
Turning to B3, the binding entry is reported as “binds”.

B4: SC6.41 (antibody, V domains shown)
VH: EVQLQQSGAESVRSGASVKLSCTASGLNIKDYYMHWVNLRPEQGLEWIGWIDPENGDTEYAPEFQGKATMTADTSSNTAYLQLSSLTSEDTAVYYCNACNYGSAYGYWGQGTTLTVSS
VL: DIVLTQATPSVPVTPGESVSISCRSSKSLLHTKGDTYLYWFLQRPGQSPQLLIYRMSNLASGVPDRFSGSGSGTVFTLRISRVEAEDVGVYYCMQHLEYPFTFGSGTKLEIKR
For the molecule B4, the binding entry is listed as “binds”.

B5: SC6.21 (antibody, V domains shown)
VH: DVQLQESGPGLVKPSQTLSLTCSVPDYSITSDYHWHWIRQFPGNKLEWMGYISSRGSTNYNPSLKNRISITHDTSENQFFLKLTSVTTEDSATYYCAGLSQLALDYWGQGTTLTVSS
VL: DIVMSQSPSSLAVSVGEKVTLSCKSSQSLLYSSTQNNYLAWYQQTPGQSPKLLIYWASTRESGVPDRFTGSGSGTDFTLTISSVKAEDLAVYYCQQYYSYPWTFGGGTKLEIK
With B5, the binding entry is listed as “binds”.

B6: SC6.58 (antibody, V domains shown)
VH: EVKLLESGGGLVQPGGSLKLSCAASGFDFSRYWMSWVRQAPGKGLEWIGDLNPDSSAINYTPSLKDKFIISRDNAKNTLYLQMSKVRSEDTALYYCTLITTLVPYTMDFWGQGTSVTVSS
VL: ETTVTQSPASLSMAIGEKVTIRCITNTDIDDDMNWYQQKPGEPPKLLISEGNGLRPGVPSRFSSSGYGTDFVFTIENMLSEDVADYYCLQSDNLPLTFGSGTKLEIK
In the case of B6, the binding result is “binds”.
